Test results reported in publication PMC3307762.
Results are given in words; binding and its absence hold for the method and conditions named. In cells and extracts the contact can be indirect. Binding can be weak; no strength is given. Tags and fused reporters may be left off the sequences shown.

Biological target: T1, HA-necdin (in PC12 cells) (mouse) (UniProt P25233)
T1 sequence: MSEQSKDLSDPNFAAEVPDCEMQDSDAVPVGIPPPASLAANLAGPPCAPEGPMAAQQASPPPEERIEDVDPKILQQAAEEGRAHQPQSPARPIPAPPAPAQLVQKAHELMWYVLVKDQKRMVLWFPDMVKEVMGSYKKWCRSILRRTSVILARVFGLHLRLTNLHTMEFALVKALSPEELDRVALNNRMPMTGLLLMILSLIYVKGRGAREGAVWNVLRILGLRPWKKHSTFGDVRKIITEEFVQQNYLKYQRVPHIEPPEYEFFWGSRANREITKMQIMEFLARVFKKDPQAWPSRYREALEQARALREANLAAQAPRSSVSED
Experiment: co-IP; anti-HA i.p. of HA-necdin from transfected PC12 cells, 1 mg total lysate, Western blot for transportin-1; cells with or without 150 ng/ml NGF for 2 hr in serum-free DMEM

With “transportin 1 (in PC12 cells) (rat (endogenous in PC12))” the binding was “binds”.
